No constants are given. Whether binding was seen depends on the method and setting. Tags and fused reporters may be left off the sequences shown.
Target: T1, MBP-TRPY1-C (cytosolic C terminus of TRPY1 fused to maltose-binding protein) (S. cerevisiae) (UniProt Q12324)
T1 sequence: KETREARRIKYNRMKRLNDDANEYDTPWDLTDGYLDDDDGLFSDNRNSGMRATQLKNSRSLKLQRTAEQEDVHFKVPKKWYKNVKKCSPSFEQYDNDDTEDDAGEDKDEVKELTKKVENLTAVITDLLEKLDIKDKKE
Experiment: pull-down; MBP-fused TRPY1 fragments (12 ug) immobilised on amylose resin, incubated with 12 ug GST-Cmd1 or GST-Cmd1–6 with 2 mM Ca2+, 60 min, 4 °C; bound protein detected by anti-GST blot; both purified

Amino acid sequences for entries named in this document (tags omitted). A change or cut given only in a name is not applied to a line headed by its entry.
UniProt P06787: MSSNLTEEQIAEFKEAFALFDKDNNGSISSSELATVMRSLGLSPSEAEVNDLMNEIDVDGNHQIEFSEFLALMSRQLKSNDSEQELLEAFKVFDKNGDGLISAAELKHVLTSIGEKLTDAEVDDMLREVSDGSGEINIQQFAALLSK

With “GST-Cmd1–6 (non-Ca2+-binding yeast calmodulin mutant fused to GST) (from UniProt P06787)” the binding was “no binding”.

From publication PMC8449268, “Activity of the yeast vacuolar TRP channel TRPY1 is inhibited by Ca^2+–calmodulin binding” (The Journal of Biological Chemistry, 2021)
